PubChem BioAssay AID1259308, NCATS – 2017
Screen: 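Genes whose loss raises luciferase production in HEK293 cells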 (primary screen). Cells: human HEK293 embryonic kidney cells stably expressing firefly luciferase (HEK-CMV-Luc2-Hygro). Reagent: single siRNA against human genes, 0.8 pmol siRNA per well. Timing: 72 h. Read-out: 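Reporter luminescence and viable-cell signal on separate replicate plates, given as percent of non-targeting control and median/MAD z-scores, plus per-cell luciferase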. Reading the numbers: total luciferase, z-score and total luciferase, % of control: higher = more reporter protein produced; luciferase per cell, z-score: higher = more reporter output per viable cell. Active means: 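Active when the median/MAD z-score for overall luciferase is greater than 3; a gene was taken forward for validation with new siRNAs if at least two of its three siRNAs passed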. Meaning of the calls: active = raised luciferase; inactive = no rise.
In all, the deposit lists about 59,000 reagents; below is an unselected part. In the full data, about 1,510 (2.6%) are marked active. 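Calls use total luciferase alone and ignore viability, so some active siRNAs may act by altering cell number.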 Unmarked entries are inactive. Reagents against one gene are numbered here. Not all columns of the deposit are shown. No sequences are given here.

gene symbol	siRNA no.	total luciferase, z-score	total luciferase, % of control	luciferase per cell, z-score
KRT19	1	-1.56	50.9	0.381
KRT19	2	0.132	84.5	-0.54
KRT19	3	1.24	106	0.482
CLEC3B	1	0.197	85.8	0.637
CLEC3B	2	-0.955	62.9	-0.122
CLEC3B	3	0.567	93.2	0.108
CNPY3	1	-0.712	67.7	-0.762
CNPY3	2	-1.06	60.8	-0.884
CNPY3	3	1.18	105	1
PPM1F	1	0.554	92.9	0.595
PPM1F	2	-0.591	70.1	-0.858
PPM1F	3	-0.587	70.2	-0.688
LAT2	1	0.581	93.4	0.0846
LAT2	2	4.84 (active)	178	3.79
LAT2	3	1.75	117	0.54
MTURN	1	0.45	90.8	0.191
MTURN	2	0.427	90.4	0.455
MTURN	3	-0.358	74.8	0.187
CENPX	1	-1.55	51	-1.87
CENPX	2	0.2	85.9	0.0391
CENPX	3	-0.966	62.7	-1.13
GPR88	1	0.537	92.6	0.308
GPR88	2	-0.298	76	0.0938
GPR88	3	-0.101	79.9	-0.503
AGPAT4	1	0.934	100	0.971
AGPAT4	2	-1.37	54.6	-1.18
AGPAT4	3	0.817	98.1	0.499
WARS1P1	1	3.46 (active)	151	3.09
WARS1P1	2	0.859	99	1.22
WARS1P1	3	1.34	109	1.19
MED21	1	-2.52	31.7	-2.61
MED21	2	-2.01	41.9	-1.49
MED21	3	-1.34	55.2	0.314
SORCS2	1	0.121	84.3	-0.689
SORCS2	2	-0.583	70.3	-0.423
SORCS2	3	-0.514	71.7	0.563
PBX3	1	-0.503	71.9	-0.481
PBX3	2	0.713	96.1	0.113
PBX3	3	-1.59	50.2	-1.13
STX17-DT	1	0.821	98.2	0.069
STX17-DT	2	0.324	88.3	0.858
STX17-DT	3	-0.742	67.1	-0.415
ZFYVE16	1	1.38	109	0.419
ZFYVE16	2	-0.369	74.6	0.486
ZFYVE16	3	1.62	114	1.39
MUC5AC	1	1.56	113	0.783
MUC5AC	2	0.72	96.2	1.42
MUC5AC	3	-0.971	62.6	-0.791
ATF6	1	-0.163	78.7	-0.176
ATF6	2	0.53	92.4	0.679
ATF6	3	-0.291	76.1	-0.195
RBBP7	1	-0.526	71.4	-0.914
RBBP7	2	-0.119	79.5	0.67
RBBP7	3	-0.278	76.4	-0.738
GAGE1	1	-0.732	67.3	-0.297
GAGE1	2	-0.533	71.3	-0.116
GAGE1	3	0.00789	82	0.259
